Assay [1] concerns the target T1, Recombinant 6x his tagged full-length LSD2 (human) (UniProt Q8NB78).
T1 sequence: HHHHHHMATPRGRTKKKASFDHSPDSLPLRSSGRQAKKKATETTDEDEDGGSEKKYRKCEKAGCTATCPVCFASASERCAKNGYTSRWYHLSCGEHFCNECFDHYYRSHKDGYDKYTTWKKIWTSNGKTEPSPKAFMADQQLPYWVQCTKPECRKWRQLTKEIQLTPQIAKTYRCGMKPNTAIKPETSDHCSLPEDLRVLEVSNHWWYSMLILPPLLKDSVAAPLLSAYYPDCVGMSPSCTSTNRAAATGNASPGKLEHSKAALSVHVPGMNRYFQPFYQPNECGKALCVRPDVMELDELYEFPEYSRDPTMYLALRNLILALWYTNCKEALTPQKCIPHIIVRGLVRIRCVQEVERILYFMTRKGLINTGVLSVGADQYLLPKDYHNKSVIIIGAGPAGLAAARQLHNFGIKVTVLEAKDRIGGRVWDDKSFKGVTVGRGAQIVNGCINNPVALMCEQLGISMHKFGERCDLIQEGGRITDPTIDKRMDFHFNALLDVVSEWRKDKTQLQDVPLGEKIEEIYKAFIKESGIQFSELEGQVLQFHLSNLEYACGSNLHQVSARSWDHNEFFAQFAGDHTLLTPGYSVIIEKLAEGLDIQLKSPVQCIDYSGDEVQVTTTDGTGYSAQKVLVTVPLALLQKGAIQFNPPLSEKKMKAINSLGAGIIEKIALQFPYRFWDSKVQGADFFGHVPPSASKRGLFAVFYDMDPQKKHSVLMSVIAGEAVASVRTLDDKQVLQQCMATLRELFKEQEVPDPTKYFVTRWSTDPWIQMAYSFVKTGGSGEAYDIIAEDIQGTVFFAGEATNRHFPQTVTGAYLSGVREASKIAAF
Put plainly: GST pulldown of purified His-LSD2, SDS-PAGE, Coomassie.

Assay [2] concerns the target T1, Recombinant 6x his tagged full-length LSD2 (human). Put plainly: GST pulldown of purified full-length His-LSD2, SDS-PAGE, coomassie.
Assay [3] shares this target. Put plainly: GST pulldown of His-LSD2, SDS-PAGE, Coomassie.

These are yes or no findings as the source states them, for the method shown. Binding seen in cells or lysates may run through a third protein. Some results given as binding are weak or reduced against the parent protein; the word gives no strength. Where a sequence is shown, tags or fusion partners need not be part of it.

B1: GST-NP.d2 (NPAC residues 1-252) (protein, not shown: a dimerising Fc or GST)
chain: MAAVSLRLGDLVWGKLGRYPPWPGKIVNPPKDLKKPRGKKCFFVKFFGTEDHAWIKVEQLKPYHAHKEEMIKINKGKRFQQAVDAVEEFLRRAKGKDQTSSHNSSDDKNRRNSSEERSRPNSGDEKRKLSLSEGKVKKNMGEGKKRVSSGSSERGSKSPLKRAQEQSPRKRGRPPKDEKDLTIPESSTVKGMMAGPMAAFKWQPTASEPVKDADPHFHHFLLSQTEKPAVCYQAITKKLKICEEETGSTSIQ
With B1, the binding entry in assay [1] and in assay [2] was “binds” in each case.

B2: GST-NP.d8 (NPAC residues 188-252) (protein, not shown: a dimerising Fc or GST)
chain: TVKGMMAGPMAAFKWQPTASEPVKDADPHFHHFLLSQTEKPAVCYQAITKKLKICEEETGSTSIQ
With B2, the binding entry in assay [3] and in assay [2] was “binds” each time.

B3: GST-NPAC (GST tagged wild-type full-length NPAC) (protein, not shown: a dimerising Fc or GST)
chain: MAAVSLRLGDLVWGKLGRYPPWPGKIVNPPKDLKKPRGKKCFFVKFFGTEDHAWIKVEQLKPYHAHKEEMIKINKGKRFQQAVDAVEEFLRRAKGKDQTSSHNSSDDKNRRNSSEERSRPNSGDEKRKLSLSEGKVKKNMGEGKKRVSSGSSERGSKSPLKRAQEQSPRKRGRPPKDEKDLTIPESSTVKGMMAGPMAAFKWQPTASEPVKDADPHFHHFLLSQTEKPAVCYQAITKKLKICEEETGSTSIQAADSTAVNGSITPTDKKIGFLGLGLMGSGIVSNLLKMGHTVTVWNRTAEKCDLFIQEGARLGRTPAEVVSTCDITFACVSDPKAAKDLVLGPSGVLQGIRPGKCYVDMSTVDADTVTELAQVIVSRGGRFLEAPVSGNQQLSNDGMLVILAAGDRGLYEDCSSCFQAMGKTSFFLGEVGNAAKMMLIVNMVQGSFMATIAEGLTLAHVTGQSQQTLLDILNQGQLASIFLDQKCQNILQGNFKPDFYLKYIQKDLRLAIALGDAVNHPTPMAAAANEVYKRAKALDQSDNDMSAVYRAYIH
As to B3, the binding result in assay [1] and in assay [2] was “binds” in each case.

B4: GST-NP.d4 (NPAC residues 152-553) (protein, not shown: a dimerising Fc or GST)
chain: SERGSKSPLKRAQEQSPRKRGRPPKDEKDLTIPESSTVKGMMAGPMAAFKWQPTASEPVKDADPHFHHFLLSQTEKPAVCYQAITKKLKICEEETGSTSIQAADSTAVNGSITPTDKKIGFLGLGLMGSGIVSNLLKMGHTVTVWNRTAEKCDLFIQEGARLGRTPAEVVSTCDITFACVSDPKAAKDLVLGPSGVLQGIRPGKCYVDMSTVDADTVTELAQVIVSRGGRFLEAPVSGNQQLSNDGMLVILAAGDRGLYEDCSSCFQAMGKTSFFLGEVGNAAKMMLIVNMVQGSFMATIAEGLTLAHVTGQSQQTLLDILNQGQLASIFLDQKCQNILQGNFKPDFYLKYIQKDLRLAIALGDAVNHPTPMAAAANEVYKRAKALDQSDNDMSAVYRAYIH
As for B4, the binding result in assay [1] and in assay [2] was “binds” each time.

For the origin of these results see patent US20150329644A1.
